Data from patent publication US8822378B2, “N-(tetrazol-5-yl)- and N-(triazol-5-yl)arylcarboxamides and use thereof as herbicides” (Bayer Intellectual Property GmbH, priority 2011, dated 2014).
Some of these results come from one statement about several compounds together.

What was measured:
Type in all cases: in vivo
[1] = test system: Pharbitis purpureum; experiment: Post-emergence herbicidal action against harmful plants; conditions: 80 g/ha, treated at one-leaf stage, rated visually after about 3 weeks vs untreated controls
[2] = test system: Stellaria media; experiment: Pre-emergence herbicidal action against harmful plants; conditions: 320 g/ha, visual assessment after 3 weeks vs untreated controls (100% = plants died)
[3] = test system: Veronica persica; experiment: as above; conditions: 320 g/ha, visual assessment after 3 weeks vs untreated controls (100% = plants died)
[4] = test system: Matricara inodora; experiment: as above; conditions: 320 g/ha, visual assessment after 3 weeks vs untreated controls (100% = plants died)
[5] = test system: Matricara inodora; experiment: Post-emergence herbicidal action against harmful plants; conditions: 80 g/ha, treated at one-leaf stage, rated visually after about 3 weeks vs untreated controls
[6] = test system: Veronica persica; experiment: as above; conditions: 80 g/ha, treated at one-leaf stage, rated visually after about 3 weeks vs untreated controls
[7] = test system: Amaranthus retroflexus; experiment: Pre-emergence herbicidal action against harmful plants; conditions: 320 g/ha, visual assessment after 3 weeks vs untreated controls (100% = plants died)
[8] = test system: Viola tricolor; experiment: as above; conditions: 320 g/ha, visual assessment after 3 weeks vs untreated controls (100% = plants died)
[9] = test system: Viola tricolor; experiment: Post-emergence herbicidal action against harmful plants; conditions: 80 g/ha, treated at one-leaf stage, rated visually after about 3 weeks vs untreated controls
[10] = test system: Stellaria media; experiment: as above; conditions: 80 g/ha, treated at one-leaf stage, rated visually after about 3 weeks vs untreated controls
[11] = test system: Abutilon theophrasti; experiment: as above; conditions: 80 g/ha, treated at one-leaf stage, rated visually after about 3 weeks vs untreated controls
[12] = test system: Abutilon theophrasti; experiment: Pre-emergence herbicidal action against harmful plants; conditions: 320 g/ha, visual assessment after 3 weeks vs untreated controls (100% = plants died)

Measured: herbicidal activity in percent

COCCOc1c(Cl)ccc(C(=O)Nc2nnnn2CCOC)c1Cl [Compound 1-366]
at least 90%: all assays above

COCCn1nnnc1NC(=O)c1ccc(Cl)c(OCC(=O)N(C)C)c1Cl [Compound 1-368]
at least 90%: all assays above

COCCn1nnnc1NC(=O)c1ccc(S(C)(=O)=O)c(COCC(F)(F)F)c1Cl [Compound 1-417]
at least 90%: all assays above

CCOc1c(S(C)(=O)=O)ccc(C(=O)Nc2nnnn2CCOC)c1Cl [Compound 1-450]
at least 90%: all assays above

CCCOc1c(S(=O)(=O)CC)ccc(C(=O)Nc2nnnn2CCOC)c1Cl [Compound 1-453]
at least 90%: all assays above

C=CCOc1c(S(C)(=O)=O)ccc(C(=O)Nc2nnnn2CCOC)c1Cl [Compound 1-456]
at least 90%: all assays above

COCCn1nnnc1NC(=O)c1ccc(S(C)(=O)=O)c(OCCF)c1Cl [Compound 1-460]
at least 90%: all assays above

CCS(=O)(=O)c1ccc(C(=O)Nc2nnnn2CCOC)c(Cl)c1OCC1CC1 [Compound 1-465]
at least 90%: all assays above

COCCOc1c(S(C)(=O)=O)ccc(C(=O)Nc2nnnn2CCOC)c1Cl [Compound 1-468]
at least 90%: all assays above

COCCn1nnnc1NC(=O)c1ccc(S(C)(=O)=O)c(OCCOC(F)(F)F)c1Cl [Compound 1-475]
at least 90%: all assays above

COCCn1nnnc1NC(=O)c1ccc(S(C)(=O)=O)c(SC)c1Cl [Compound 1-488]
at least 90%: all assays above

COCCn1nnnc1NC(=O)c1ccc(S(C)(=O)=O)c(OC)c1Br [Compound 1-494]
at least 90%: all assays above

COCCn1nnnc1NC(=O)c1ccc(C(F)(F)F)c(SC)c1OC [Compound 1-517]
at least 90%: all assays above

COCCn1nnnc1NC(=O)c1ccc(C(F)(F)F)c(SC)c1Cl [Compound 1-583]
at least 90%: all assays above

CCOCCn1nnnc1NC(=O)c1ccc(C(F)(F)F)c(S(C)(=O)=O)c1C [Compound 2-2]
at least 90%: all assays above
